± gives the uncertainty stated by the source. Many entries were measured with a wide error.
Assay: self-splicing fitness, log relative to wild type (ln ratio); higher = more splicing; Tetrahymena group I intron in knt gene, E. coli kanamycin selection, DiMSum; sequences stand for … in CUCUCU…GGAGGGAAAAGUUAUCAGGCAUGCACCUGGUAGCUAGUCUUUAAACCAAUAGAUUGCAUCGGUUUAAAAGGCAAGACCGUCAAAUUGCGGGAAAGGGGUCAACAGCCGUUCAGUACCAAGUCUCAGGGGAAACUUUGAGAUGGCCUUGCAAAGGGUAUGGUAAUAAGCUGACGGACAUGGUCCUAACCACGCAGCCAAGUCCUAAGUCAACAGAUCUUCUGUUGAUAUGGAUGCAGUUCACAGACUAAAUGUCGGUCGGGGAAGAUGUAUUCUUCUCAUAAGAUAUAGUCGGACCUCUCCUUAAUGGGAGCUAGCGGAUGAAGUGAUGCAACACUGGAGCCGCUGGGAACUAAUUUGUAUGCGAAAGUAUAUUGAUUAGUUUUGGAGUACUCGUGGUCG
In short: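 Six replicate transformations of E. coli BL21(DE3) with a pET-22b(+) library were grown overnight at 37°C or 30°C. The library randomised all eight P1ex-region intron nucleotides, the intron lying in the knt kanamycin-resistance gene, and plates were LB agar with or without 25 μg/mL kanamycin plus 100 μg/mL carbenicillin, 50 μM IPTG and 0.2% rhamnose. Pooled colonies were amplicon-sequenced on an Illumina HiSeq 2500, and fitness is the DiMSum error-weighted combination of wild-type-normalised replicate fold changes, kanamycin versus none.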

Sequence	self-splicing fitness (ln) (30 °C)	self-splicing fitness (ln) (37 °C)
UUAGAGCAAUAUUACGGCUU	-2.83 ± 0.21	-1.79 ± 0.22
CUGGAGCAAUAUUACGCUCG	–	-2.01 ± 0.5
GCAUAGCAAUAUUACGCUGG	-4.94 ± 0.71	–
ACACAGCAAUAUUACGACAU	-0.676 ± 0.01	-0.0836 ± 0.031
CGGGAGCAAUAUUACGUCAC	-3.43 ± 0.63	-1.69 ± 0.59
UUGGAGCAAUAUUACGACUC	-1.3 ± 0.57	-2.39 ± 1.1
UAGGAGCAAUAUUACGAACA	–	-1.04 ± 0.5
CGUAAGCAAUAUUACGCAAA	-3.06 ± 0.81	–
GUCGAGCAAUAUUACGAAGG	–	-1.64 ± 0.68
GAGGAGCAAUAUUACGCCAC	-3.85 ± 0.59	-2.39 ± 0.37
CAUGAGCAAUAUUACGACCA	-1.78 ± 0.73	-2.39 ± 1.1
GGAGAGCAAUAUUACGGAUU	-4.8 ± 0.58	-1.62 ± 0.22
GAGGAGCAAUAUUACGCUAA	–	-1.98 ± 0.66
UAGGAGCAAUAUUACGGGGC	-1.15 ± 0.76	-1.98 ± 1.1
UCGGAGCAAUAUUACGUUCC	-0.354 ± 0.53	-1.79 ± 1.2
GGCUAGCAAUAUUACGCUGG	–	-1.98 ± 0.79
AUCGAGCAAUAUUACGGUCC	–	-2.81 ± 0.74
UAGGAGCAAUAUUACGUAGU	-3.13 ± 0.3	-1.81 ± 0.3
AGCAAGCAAUAUUACGAUAC	-4.29 ± 1.1	-1.72 ± 0.46
GGUCAGCAAUAUUACGGGCU	-4.29 ± 0.52	-2.66 ± 0.53
AUCAAGCAAUAUUACGCACG	-2.1 ± 0.15	-2.28 ± 0.18
CGCGAGCAAUAUUACGACUU	-2.31 ± 0.5	–
ACGCAGCAAUAUUACGCAAA	-2.51 ± 0.13	-1.77 ± 0.14
AAUGAGCAAUAUUACGGUAU	-4.41 ± 1	–
CAGGAGCAAUAUUACGACAA	-3.06 ± 0.76	-1.73 ± 0.41
UGUGAGCAAUAUUACGAUAC	-3 ± 0.62	-3.17 ± 1
GAGUAGCAAUAUUACGCUGC	-2.81 ± 1.1	-2.05 ± 0.53
CGUUAGCAAUAUUACGCGUA	-3.9 ± 0.74	–

Part of the list above, field by field.
GCAUAGCAAUAUUACGCUGG
  self-splicing fitness (ln) (30 °C) = -4.94 ± 0.71
UUGGAGCAAUAUUACGACUC
  self-splicing fitness (ln) (30 °C) = -1.3 ± 0.57
  self-splicing fitness (ln) (37 °C) = -2.39 ± 1.1
UCGGAGCAAUAUUACGUUCC
  self-splicing fitness (ln) (30 °C) = -0.354 ± 0.53
  self-splicing fitness (ln) (37 °C) = -1.79 ± 1.2
UAGGAGCAAUAUUACGUAGU
  self-splicing fitness (ln) (30 °C) = -3.13 ± 0.3
  self-splicing fitness (ln) (37 °C) = -1.81 ± 0.3

(continued)

Sequence	self-splicing fitness (ln) (30 °C)	self-splicing fitness (ln) (37 °C)
GUAGAGCAAUAUUACGCGUC	-0.836 ± 0.18	-0.0736 ± 0.22
UGGGAGCAAUAUUACGGCCC	–	-2.3 ± 1.1
AGGGAGCAAUAUUACGAAAA	-4.19 ± 1	-1.97 ± 0.66
ACAUAGCAAUAUUACGCAGC	-3.86 ± 0.72	–
CUCCAGCAAUAUUACGCGUC	–	-2.53 ± 0.55
UCGGAGCAAUAUUACGUCAU	-3.34 ± 0.74	–
UGGUAGCAAUAUUACGCAAC	–	-3.55 ± 1
GUCCAGCAAUAUUACGAAAC	-0.222 ± 0.15	-0.568 ± 0.2
UCUUAGCAAUAUUACGGAUG	-3.74 ± 0.28	-1.76 ± 0.17
CUUGAGCAAUAUUACGCUGC	–	-2.9 ± 1.1
CAGAAGCAAUAUUACGAUGU	-3.37 ± 0.23	-1.97 ± 0.2
CAACAGCAAUAUUACGAAAU	-2.7 ± 0.12	-2.47 ± 0.2
AAAGAGCAAUAUUACGCCCC	0.285 ± 1.1	-1.78 ± 1.2
UCUGAGCAAUAUUACGUAAG	-0.697 ± 0.11	-0.863 ± 0.19
CUAAAGCAAUAUUACGCCCU	-2.94 ± 0.84	-1.47 ± 1.2
GACGAGCAAUAUUACGCCCG	–	-1.09 ± 0.92
UCUUAGCAAUAUUACGCCCU	-2.42 ± 1.2	-0.972 ± 0.52
UGAGAGCAAUAUUACGGGUA	–	-3.66 ± 0.52
AAGGAGCAAUAUUACGCGGC	–	-3 ± 1.1
AAGGAGCAAUAUUACGGGUC	-4.37 ± 0.51	-2.23 ± 0.57
UCUUAGCAAUAUUACGGAUC	-4.04 ± 0.61	–
CAAGAGCAAUAUUACGAGGA	-3.17 ± 0.33	-2.79 ± 0.44
CAUGAGCAAUAUUACGUCCC	–	-2.03 ± 1.1
UUUGAGCAAUAUUACGUAGU	–	-3.69 ± 1
GUGCAGCAAUAUUACGAUUG	-3.67 ± 0.62	-2.04 ± 0.56
AUAUAGCAAUAUUACGAGAG	-4.7 ± 0.72	–
CUCCAGCAAUAUUACGCAAA	-3.21 ± 0.21	-2.68 ± 0.26
